# Assay results from PubChem BioAssay AID445 (National Center for Advancing Translational Sciences (NCATS), 2006).
# The list shows a part of the results. Further columns of the screen follow, without active or inactive calls. The list favours compounds with an active or inconclusive main result. Potencies come from curve fits of mixed quality, noted in brackets.
# Assay: IkB Signaling
# Settings: ABC-DLBCL IkBa-CBG/CBR dual luciferase ratio (green luciferase fused to IkBa over red control in OCI-Ly3 lymphoma cells), 4 h
# In short: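 Curves were fitted separately to fusion (green), unfused (red) and ratio luminescence, then classed by r2, magnitude and activity. Cells: OCI-Ly3, 4 h compound plus doxycycline at 37C; 10 uM MG-132 defined full response.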
# [1] = measured here: control luc red channel unless noted
# [2] = measured here: IkB-luc green channel
# [3] = measured here: control luc red channel
smiles,measurement,setting,value
Cc1noc2ncnc(NCCc3ccccc3)c12,AC50,[1],"12.6 µM [falling, single point]"
CCOCCc1nn2c(=O)cc(COC(=O)c3ccccc3NC(=O)c3ccccc3F)nc2s1,AC50,[1],"10 µM [falling, single point]"
CCOc1ccc(C(=O)c2cn(CC(=O)Nc3ccc(OC)cc3)c3cc4c(cc3c2=O)OCO4)cc1,AC50,[1],"10 µM [rising, partial curve]"
O=C(NCC(c1ccc2c(c1)OCO2)N1CCN(c2ccccc2)CC1)C(=O)Nc1ccc(F)cc1 (stereo not given),AC50,[1],"0.1 µM [falling, full curve]"
O=C(NCc1cccs1)c1cc2ccccc2o1,AC50,[1],"15.8 µM [falling, partial curve]"
CN(C)c1ccc(CN(Cc2ccco2)C(=O)COc2ccc(F)cc2)cc1,AC50,[1],"20 µM [falling, single point]"
Cc1ccc(NC(=O)N2CC3CCCN3c3ccccc32)cc1C (stereo not given),AC50,[1],"5.01 µM [falling, partial curve]"
Cc1cccc(C(=O)NCC(c2cccs2)S(=O)(=O)c2cccs2)c1 (stereo not given),AC50,[1],"1 µM [rising, full curve]"
Cc1nc2sc(C)c(C)n2c(=O)c1S(=O)(=O)N1CCN(c2ccccc2F)CC1,AC50,[1],"20 µM [falling, single point]"
Cc1c(C(=O)N(Cc2ccc(N(C)C)cc2)CC2CCCO2)oc2ccccc12 (stereo not given),AC50,[1],"20 µM [falling, partial curve]"
Cc1cccc(N2CCN(C(=O)c3ccc4nc(N5CCC(C)CC5)sc4c3)CC2)c1C,AC50,[1],"12.6 µM [falling, partial curve]"
CCCSc1ncc(Cl)c(C(=O)Nc2ccc(S(=O)(=O)N3CCCC(C)C3)cc2)n1 (stereo not given),AC50,[1],"15.8 µM [falling, partial curve]"
CCc1nnc(SCc2nc(-c3ccccc3Cl)oc2C)c2cc3sc(C)cc3n12,AC50,[1],"10 µM [falling, partial curve]"
COc1ccc2[nH]cc(CCNC(=O)Nc3ccccc3)c2c1,AC50,[1],"39.8 µM [falling, single point]"
Cc1ccc(NC(=O)CN2C(=O)c3cccnc3Sc3ccccc32)cc1C,AC50,[1],"25.1 µM [falling, single point]"
CCCn1c(=O)c2ccccc2n2c(SCc3nc4ccccc4s3)nnc12,AC50,[1],"2.51 µM [falling, partial curve]"
c1ccc(-c2cc(-c3nnc4sc(-c5ccccn5)nn34)[nH]n2)cc1,AC50,[1],"2 µM [falling, full curve]"
O=C(COc1ccccc1Br)c1ccc(O)cc1O,AC50,[1],"31.6 µM [falling, partial curve]"
CCc1ccc(CNc2ncc(-c3cccc(OC)c3)n2C)cc1,AC50,[1],"12.6 µM [rising, partial curve]"
O=C(CC1CCCCC1)N1CCN(c2ccccn2)CC1,AC50,[1],"12.6 µM [falling, partial curve]"
CCOC(=O)Cc1cc(C(=O)Nc2ccc(Br)cc2)sc1-c1ccc(C)cc1,AC50,[1],"10 µM [falling, partial curve]"
O=C(O)CCC(=O)Nc1ccc(N2CCCCCC2)cc1,AC50,[2],"15.8 µM [rising, partial curve]"
same,AC50,[3],"0.02 µM [falling, full curve]"
CN1/C(=C\C(=O)COC(=O)Cn2nnc(-c3ccccc3)n2)C(C)(C)c2ccccc21,AC50,[1],"7.94 µM [falling, partial curve]"
COc1ccc(CNC(=O)C2CCCN(S(=O)(=O)N(C)c3ccc(F)cc3)C2)cc1OC (stereo not given),AC50,[1],"10 µM [falling, partial curve]"
O=C(OCc1cc(=O)n2nc(-c3cccs3)sc2n1)c1cccc(Cl)c1,AC50,[1],"2.51 µM [falling, partial curve]"
COc1ccc(S(=O)(=O)c2c(N)n(Cc3ccco3)c3nc4ccccc4nc23)cc1,AC50,[1],"15.8 µM [falling, partial curve]"
Cc1ccccc1C(=O)Nc1cccc(OCc2cc(=O)n3c4c(sc3n2)CCCC4)c1,AC50,[1],"20 µM [falling, partial curve]"
COc1ccc(NC(=O)Cn2cc(S(=O)(=O)N3CCC(C)CC3)c3ccccc3c2=O)cc1Cl,AC50,[1],"5.01 µM [falling, partial curve]"
Cc1ccc(C)c(N2CCN(C(=O)c3ccc(-c4nc(COc5ccccc5)c(C)o4)cc3)CC2)c1,AC50,[1],"10 µM [falling, partial curve]"
COc1cccc(CNS(=O)(=O)c2ccc3[nH]c4c(c3c2)CCCCC4)c1,AC50,[1],"31.6 µM [falling, single point]"
CCOc1ccc(NC(=O)c2ccc3[nH]c(C)cc(=O)c3c2)cc1,AC50,[1],"0.00631 µM [rising, full curve, poor fit]"
COC(=O)c1cc(C(=O)OC)cc(S(=O)(=O)Nc2ccc(Cl)c(N)c2)c1,AC50,[1],"31.6 µM [falling, single point]"
COc1ccc(CN(Cc2ccco2)C(=O)COc2ccc(Cl)cc2C)cc1,AC50,[1],"25.1 µM [falling, partial curve]"
CCOC(=O)c1c(S(=O)(=O)N2CCCC(C(=O)NCc3ccc(F)cc3)C2)c(C)n(CC)c1C (stereo not given),AC50,[1],"5.01 µM [rising, single point]"
O=C(CCCCn1c(=O)[nH]c2ccsc2c1=O)N1CCN(c2cccc(C(F)(F)F)c2)CC1,AC50,[1],"20 µM [falling, partial curve]"
CC(=O)N1CCc2c(sc3c2c(=O)n(-c2cccc(Cl)c2C)c(=O)n3Cc2ccccc2C)C1,AC50,[1],"31.6 µM [falling, single point]"
Cn1cc(C(=O)c2ccc(Cl)cc2)cc1-c1nc2ccccc2n1C,AC50,[1],"5.01 µM [falling, full curve]"
CCN1CCN(Cc2c(O)ccc3oc(C)c(C(=O)Nc4ccc(OC)cc4)c23)CC1,AC50,[1],"10 µM [falling, partial curve]"
O=C(CSc1nc2cc(Cl)ccc2o1)c1cccs1,AC50,[1],"25.1 µM [falling, single point]"
CCC(=O)OCC(=O)[C@@]1(OC(=O)CC)[C@H](C)C[C@@H]2[C@@H]3[C@H]([C@@H](O)C[C@@]21C)[C@]1(C)C=CC(=O)C=C1C[C@@H]3Cl,AC50,[1],"5.01 nM [rising, full curve] [measured here: IkB-luc green channel]"
Cc1ccc(SCc2[nH]nc3c2C2(CCSCC2)C(C#N)=C(N)O3)cc1,AC50,[1],"5.01 µM [falling, partial curve, poor fit]"
N#C/C(=C\c1ccc(O)c(O)c1)C(=O)NCCCc1ccccc1,AC50,[1],"15.8 µM [falling, partial curve]"
CCCCNC(=O)Nc1ccc(Br)cn1,AC50,[1],"25.1 µM [falling, single point]"
CCOC(=O)c1ccccc1NC(=O)Cn1nnc2sc3c(c2c1=O)CCCC3,AC50,[1],"25.1 µM [falling, single point]"
CCn1c(=O)c(C(=O)NCc2ccccn2)c(O)c2ccccc21,AC50,[1],"7.94 µM [falling, partial curve]"
CCOc1ccc(NC(=O)c2oc3ccccc3c2NC(=O)C2CCCCC2)cc1,AC50,[1],"39.8 µM [falling, single point]"
COc1ccc(CCNc2oc(COc3ccccc3Cl)nc2C#N)cc1OC,AC50,[2],"12.6 µM [falling, partial curve]"
same,AC50,[3],"3.98 µM [falling, partial curve]"
Cc1cccc(NC(=O)CSc2nc(=O)n(Cc3ccncc3)c3c2CCC3)c1C,AC50,[1],"5.01 µM [falling, partial curve]"
Cc1ncsc1C(=O)Nc1nc2c(s1)CCCC2,AC50,[1],"7.94 µM [falling, partial curve]"
CCOC(=O)Cn1c(=O)oc2cc(S(=O)(=O)Nc3ccc(F)cc3)ccc21,AC50,[1],"15.8 µM [falling, partial curve]"
Oc1ccc(/C=C/c2nc(-c3ccccc3O)n(-c3ccccc3)n2)c(O)c1,AC50,[1],"25.1 µM [falling, partial curve]"
CCCCCNC(=O)c1cc2c(=O)n3ccccc3nc2n1C,AC50,[1],"25.1 µM [falling, partial curve]"
CN(C)C(=O)c1ccc(NC(=O)Cn2nc(-c3ccccc3)c3ccccc3c2=O)cc1,AC50,[1],"10 µM [falling, partial curve]"
CCOC(=O)c1cccc(NS(=O)(=O)c2cc(-c3cnc(C)o3)ccc2OC)c1,AC50,[1],"20 µM [falling, partial curve, poor fit]"
CCOC(=O)c1c(NC(=O)COc2cc(C)ccc2C(C)C)sc2c1CCCC2,AC50,[1],"39.8 µM [falling, single point]"
CC(C)(C)Nc1ncnc2c1cnn2-c1ccccc1,AC50,[1],"20 µM [falling, single point]"
Cc1cccc(NC(=O)c2c(NC(=O)c3cccs3)sc3c2CCC(C)C3)c1 (stereo not given),AC50,[1],"2.51 µM [falling, full curve]"
CCOC(=O)C1=C(C)N=C(/N=C/N(C)C)SC1c1ccccc1 (stereo not given),AC50,[1],"15.8 µM [falling, partial curve]"
Cc1cnc(NC(=O)CSc2nnc(-c3ccccc3)o2)s1,AC50,[1],"2.51 µM [falling, partial curve]"
CC1=C(c2ccc(C(C)C)cc2)S(=O)(=O)N=C1N1CCN(c2ccc(F)cc2)CC1,AC50,[1],"3.98 µM [rising, single point]"
COc1ccccc1C(=O)n1nc(-c2cccnc2)nc1NCc1ccccc1,AC50,[1],"39.8 µM [falling, single point]"
Cc1ccc(OCC(=O)Nc2nnc(SCc3cc(=O)c4ccccc4[nH]3)s2)cc1C,AC50,[1],"15.8 µM [falling, partial curve]"
Cc1ccc(Cl)cc1NC(=O)c1ccc(NC(=O)N2CCSc3ncccc32)cc1,AC50,[1],"39.8 µM [falling, single point]"

# Taken from above (five entries):
smiles,measurement,setting,value
Cc1nc2sc(C)c(C)n2c(=O)c1S(=O)(=O)N1CCN(c2ccccc2F)CC1,AC50,[1],"20 µM [falling, single point]"
Cc1c(C(=O)N(Cc2ccc(N(C)C)cc2)CC2CCCO2)oc2ccccc12 (stereo not given),AC50,[1],"20 µM [falling, partial curve]"
Cc1cccc(N2CCN(C(=O)c3ccc4nc(N5CCC(C)CC5)sc4c3)CC2)c1C,AC50,[1],"12.6 µM [falling, partial curve]"
CCCSc1ncc(Cl)c(C(=O)Nc2ccc(S(=O)(=O)N3CCCC(C)C3)cc2)n1 (stereo not given),AC50,[1],"15.8 µM [falling, partial curve]"
CCc1nnc(SCc2nc(-c3ccccc3Cl)oc2C)c2cc3sc(C)cc3n12,AC50,[1],"10 µM [falling, partial curve]"
